Earlier results as cited in patent publication US6703399B2, “Halo-alkyl esters of camptothecins and methods of treating cancer using these compounds” (priority 2002, dated 2004).
For at least one compound, name, drawing or mass did not settle the structure.

Settings: cited from earlier work

SMILES: CC[C@@](O)(C(=O)[O-])c1cc2n(c(=O)c1CO)Cc1cc3ccccc3nc1-2.[Na+] [sodium carboxylate salt]
- potency relative to native camptothecin with the closed lactone ring intact: 10%
